Measured values as given in the supplement of paper PMC9744312.
Counter-ions that a name gives are not always drawn. The list shows a part of the results. Single values of this set are uncertain.

Tested on: Peyronie's disease tunica albuginea primary fibroblasts
Assay: inhibition of TGF-beta1-induced alpha-SMA expression (myofibroblast transformation), relative to TGF-beta1-only and untreated controls; higher = stronger inhibition of myofibroblast transformation
Settings: 10 µM; TGF-beta1 10 ng/mL; 72 h

Compound | inhibition of TGF-beta1-induced alpha-SMA expression
CC(=O)[C@@]1(O)CC[C@H]2[C@@H]3CCC4=CC(=O)CCC4=C3[C@@H](c3ccc(N(C)C)cc3)C[C@@]21C [Ulipristal] | 16.5%
CC1(C)CCC(CN2CCN(c3ccc(C(=O)NS(=O)(=O)c4ccc(NCC5CCOCC5)c([N+](=O)[O-])c4)c(Oc4cnc5[nH]ccc5c4)c3)CC2)=C(c2ccc(Cl)cc2)C1 [Venetoclax (ABT-199, GDC-0199)] | 36.2%
CCCCCCCCCCC[C@@H](C[C@@H]1OC(=O)[C@H]1CCCCCC)OC(=O)[C@H](CC(C)C)NC=O [Orlistat] | 10.6%
Cc1ccc(NC(=O)c2ccc(CN3CC[C@H](N(C)C)C3)c(C(F)(F)F)c2)cc1Nc1nccc(-c2cncnc2)n1 [Bafetinib (INNO-406)] | 21.7%
CC(C)(S)[C@@H](N)C(=O)O [Penicillamine] | 30.4%
COc1cc(OC)c(C(=O)CCCN2CCCC2)c(OC)c1 [Buflomedil HCl] | -7.9%
O.O.O.O.O=C([O-])CC(O)(CC(=O)[O-])C(=O)[O-].[Li+].[Li+].[Li+] [Citric acid trilithium salt tetrahydrate] | -19.6%
N#CC(c1ccc(Cl)cc1)c1c(Cl)cc(-n2ncc(=O)[nH]c2=O)cc1Cl (stereo not given) [Diclazuril] | -5.14%
OCc1cc([C@@H](O)CNCCCCCCOCCOCc2c(Cl)cccc2Cl)ccc1O [Vilanterol Trifenate] | 38.2%
CC(C)(C)C(=O)OCOP(=O)(COCCn1cnc2c(N)ncnc21)OCOC(=O)C(C)(C)C [Adefovir Dipivoxil] | -5.02%
CCOc1ccc(Cc2cc([C@@H]3O[C@H](SC)[C@@H](O)[C@H](O)[C@H]3O)ccc2Cl)cc1 [Sotagliflozin (LX4211)] | 26%
CN1CCC(=C2c3ccccc3CC(=O)c3sccc32)CC1 [Ketotifen Fumarate] | 69.4%
COc1ccccc1N1CCN(CC(O)COc2cccc3ccccc23)CC1 (stereo not given) [Naftopidil] | 0.231%
COc1ccccc1N1CCN(CC(O)COc2cccc3ccccc23)CC1 (stereo not given) [Naftopidil DiHCl] | -4.85%
COC(=O)c1ccccc1O [Methyl salicylate] | -17.8%
CC(C)(Sc1cc(C(C)(C)C)c(O)c(C(C)(C)C)c1)Sc1cc(C(C)(C)C)c(O)c(C(C)(C)C)c1 [Probucol] | 23.1%
C=CC(=O)Nc1cccc(Nc2nc(Nc3ccc(N4CCN(C(C)=O)CC4)cc3OC)ncc2C(F)(F)F)c1 [Rociletinib (CO-1686, AVL-301)] | 40.2%
CS(=O)(=O)CCNCc1ccc(-c2ccc3ncnc(Nc4ccc(OCc5cccc(F)c5)c(Cl)c4)c3c2)o1 [Lapatinib ditosylate monohydrate] | 25.2%
CS(=O)(=O)CCNCc1ccc(-c2ccc3ncnc(Nc4ccc(OCc5cccc(F)c5)c(Cl)c4)c3c2)o1 | 19.5%
CS(=O)(=O)CCNCc1ccc(-c2ccc3ncnc(Nc4ccc(OCc5cccc(F)c5)c(Cl)c4)c3c2)o1 [Lapatinib] | > 100%
Nc1c(Br)cc(Br)cc1CN[C@H]1CC[C@H](O)CC1 [Ambroxol HCl] | 26.6%
Nc1c(Br)cc(Br)cc1CN[C@H]1CC[C@H](O)CC1 [Ambroxol] | 31.1%
Oc1ccc(Cl)c2cccnc12 [Cloxiquine] | > 100%

Compound | inhibition of TGF-beta1-induced alpha-SMA expression
Cn1ccnc1S [Methimazole] | 9.67%
Nc1ncn([C@H]2C[C@H](O)[C@@H](CO)O2)c(=O)n1 [Decitabine] | 64.8%
CC(C)(C(=O)c1cccnc1)c1cccnc1 [Metyrapone] | 45.9%
CC(C)/N=c1\cc2n(-c3ccc(Cl)cc3)c3ccccc3nc-2cc1Nc1ccc(Cl)cc1 [Clofazimine] | 26.1%
O=C1Cc2cc(CCN3CCN(c4nsc5ccccc45)CC3)c(Cl)cc2N1 [Ziprasidone HCl] | 63.3%
CCN[C@H]1C[C@H](C)S(=O)(=O)c2sc(S(N)(=O)=O)cc21 [Dorzolamide HCl] | 11.2%
CO[C@@]1(NC(=O)CSCC#N)C(=O)N2C(C(=O)O)=C(CSc3nnnn3C)CS[C@@H]21 [Cefmetazole sodium] | -0.373%
C[C@@H]1[C@H](O)[C@@H](C)/C=C/C=C/C=C/C=C/C=C/C=C/C=C/[C@H](O[C@@H]2O[C@H](C)[C@@H](O)[C@H](N)[C@@H]2O)C[C@@H]2O[C@](O)(C[C@@H](O)C[C@@H](O)[C@H](O)CC[C@@H](O)C[C@@H](O)CC(=O)O[C@H]1C)C[C@H](O)[C@H]2C(=O)O [Amphotericin B] | 5.78%
CN1C2=CC(=O)/C(=N\NC(N)=O)C=C2CC1S(=O)(=O)O (stereo not given) [Carbazochrome sodium sulfonate (AC-17)] | 19.7%
CCC(Cc1c(I)cc(I)c(N)c1I)C(=O)O (stereo not given) [Iopanoic acid] | -2.65%
CCC(NC(C)C)C(O)c1ccc(O)c(O)c1 (stereo not given) [Isoetharine Mesylate] | 92.6%
C[C@]12CC[C@@H]3c4ccc(O)cc4CC[C@H]3[C@@H]1CC[C@@H]2OC(=O)CCC1CCCC1 [Estradiol Cypionate] | 12%
CN1CCN(C2=Nc3cc(Cl)ccc3Nc3ccccc32)CC1 [Clozapine] | 25.6%
C=CC(=O)N1CCC(Oc2cc3c(Nc4ccc(Cl)c(Cl)c4F)ncnc3cc2OC)CC1 [Poziotinib (HM781-36B)] | 55.7%
Cc1ccc(-c2ncc(Cl)cc2-c2ccc(S(C)(=O)=O)cc2)cn1 [Etoricoxib] | 21.4%
NCC(=O)O [Glycine] | 15.2%
CC1CCc2c(N3CCC(O)CC3)c(F)cc3c(=O)c(C(=O)O)cn1c23 (stereo not given) [Nadifloxacin] | 27.7%
Cc1cc(=O)n(-c2ccccc2)n1C [Antipyrine] | 18.8%
Clc1ccc(COC(Cn2ccnc2)c2ccc(Cl)cc2Cl)c(Cl)c1 (stereo not given) [Miconazole] | 19.2%
Clc1ccc(COC(Cn2ccnc2)c2ccc(Cl)cc2Cl)c(Cl)c1 (stereo not given) [Miconazole Nitrate] | 55.2%
CCCN(CCc1cccs1)[C@H]1CCc2c(O)cccc2C1 [Rotigotine] | 10%
CS(=O)(=O)n1cc2c(n1)CN([C@H]1CO[C@H](c3cc(F)ccc3F)[C@@H](N)C1)C2 [Omarigliptin (MK-3102)] | -19.3%

Part of the list above, comma-delimited:
Compound,inhibition of TGF-beta1-induced alpha-SMA expression
CCC(NC(C)C)C(O)c1ccc(O)c(O)c1 (stereo not given) [Isoetharine Mesylate],92.6%
C[C@]12CC[C@@H]3c4ccc(O)cc4CC[C@H]3[C@@H]1CC[C@@H]2OC(=O)CCC1CCCC1 [Estradiol Cypionate],12%
CN1CCN(C2=Nc3cc(Cl)ccc3Nc3ccccc32)CC1 [Clozapine],25.6%
C=CC(=O)N1CCC(Oc2cc3c(Nc4ccc(Cl)c(Cl)c4F)ncnc3cc2OC)CC1 [Poziotinib (HM781-36B)],55.7%
Cc1ccc(-c2ncc(Cl)cc2-c2ccc(S(C)(=O)=O)cc2)cn1 [Etoricoxib],21.4%
NCC(=O)O [Glycine],15.2%
CC1CCc2c(N3CCC(O)CC3)c(F)cc3c(=O)c(C(=O)O)cn1c23 (stereo not given) [Nadifloxacin],27.7%
Cc1cc(=O)n(-c2ccccc2)n1C [Antipyrine],18.8%
